Measured values reported in paper PMC7078224.

T1: DDK-tagged ERRA (estrogen related receptor, alpha) (UniProt O08580)
T1 sequence: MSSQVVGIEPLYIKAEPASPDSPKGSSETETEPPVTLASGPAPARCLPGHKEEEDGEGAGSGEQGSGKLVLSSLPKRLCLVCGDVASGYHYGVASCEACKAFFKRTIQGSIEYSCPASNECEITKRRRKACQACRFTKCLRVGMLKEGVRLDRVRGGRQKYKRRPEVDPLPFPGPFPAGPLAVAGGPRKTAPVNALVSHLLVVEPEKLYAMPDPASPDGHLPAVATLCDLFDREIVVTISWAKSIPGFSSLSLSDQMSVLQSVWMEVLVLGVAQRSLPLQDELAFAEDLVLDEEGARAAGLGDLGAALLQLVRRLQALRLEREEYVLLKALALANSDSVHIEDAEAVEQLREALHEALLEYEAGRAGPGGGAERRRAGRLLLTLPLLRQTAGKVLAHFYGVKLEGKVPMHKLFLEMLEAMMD

B1: flightless I actin binding protein (FLII) (protein, UniProt Q9JJ28 1-1271)
chain: MEATGVLPFVRGVDLSGNDFKGGYFPENVKAMTSLRWLKLNRTGLCYLPEELAALQKLEHLSVSHNHLTTLHGELSSLPSLRAIVARANSLKNSGVPDDIFKLDDLSVLDLSHNQLTECPRELENAKNMLVLNLSHNGIDSIPNQLFINLTDLLYLDLSENRLESLPPQMRRLVHLQTLVLNGNPLLHAQLRQLPAMMALQTLHLRNTQRTQSNLPTSLEGLSNLSDVDLSCNDLTRVPECLYTLPSLRRLNLSSNQIAELSLCIDQWVHLETLNLSRNQLTSLPSAICKLTKLKKLYLNSNKLDFDGLPSGIGKLTSLEEFMAANNNLELIPESLCRCPKLKKLVLNKNRLVTLPEAIHFLTEIQVLDVRENPSLVMPPKPADRTAEWYNIDFSLQNQLRLAGASPATVAAAAAVGSGSKDPLARKMRLRRRKDSAQDVQAKQVLKGMSDVAQEKNKNQEESIDARAPGGKVRRWDQGLEKPRLDYSEFFTEDVGQLPGLTIWQIENFVPVLVEEAFHGKFYEADCYIVLKTFLDDSGSLNWEIYYWIGGEATLDKKACSAIHAVNLRNYLGAECRTVREEMGDESEEFLQVFDNDISYIEGGTASGFYTVEDTHYVTRMYRVYGKKNIKLEPVPLKGSSLDPRFVFLLDQGLDIYVWRGAQATLSNTTKARLFAEKINKNERKGKAEITLLVQGQEPPGFWDVLGGEPSEIKNHVPDDFWPPQPKLYKVGLGLGYLELPQINYKLSVEHKKRPKVELMPGMRLLQSLLDTRCVYILDCWSDVFIWLGRKSPRLVRAAALKLGQELCGMLHRPRHTVVSRSLEGTEAQVFKAKFKNWDDVLTVDYTRNAEAVLQGQGLSGKVKRDTEKTDQMKADLTALFLPRQPPMPLAEAEQLMEEWNEDLDGMEGFVLEGRKFTRLPEEEFGHFYTQDCYVFLCRYWVPVEYEEEEKTEDKEGKASAEAREGEEAAAEAEEKQPEEDFQCIVYFWQGREASNMGWLTFTFSLQKKFESLFPGKLEVVRMTQQQENPKFLSHFKRKFIIHRGKRKVTQGTLQPTLYQIRTNGSALCTRCIQINTDSSLLNSEFCFILKVPFESEDNQGIVYAWVGRASDPDEAKLAEDILNTMFDASYSKQVINEGEEPENFFWVGIGAQKPYDDDAEYMKHTRLFRCSNEKGYFAVTEKCSDFCQDDLADDDIMLLDNGQEVYMWVGTQTSQVEIKLSLKACQVYIQHTRSKEHERPRRLRLVRKGNEQRAFTRCFHAWSTFRQAPA
B2: leucine rich repeat (in FLII) interacting protein 1 (LRRFIP1) (protein, UniProt Q3UZ39 1-729)
chain: MTSPEGAQNKEIDCLSPEAQRLAEARLAAKRAARAEAREIRMKELERQQKEVEERPDKDFAEKGSRNMPSLSAATLASLGGTSSRRGSGDTSISMDTEASIREIKDSLAEVEEKYKKAMVSNAQLDNEKTNFMYQVDTLKDMLLELEEQLAESQRQYEEKNKEFEREKHAHSILQFQFAEVKEALRQREEMLEKHGIILNSEIATNGETSDTVNDVGYQAPTKITKEELNALKSAGEGTLGKAKEVEVKKEIVEKVGQRETLQNSEQEQPKPNTGKDCVDRGVSHPGEKAENQRPAEDSALSPGPLAGAKCEQQVQSQDQENTSDLKNSEQIESHKVTNKSDSRASNSPEQSSCLEGLDSEVPGPTEDLKTDLGKGSFEPCPDYILGQTAEIDKVTCTDSRGTGGNQREDEVQAGDTTVEDQVGTVASGPAKQSKGTENHGESCLKDGLGQSSERELTQEVAEPEEAIVQIPQAGGENTITKADDAEGRDEKPIQAEAQASPGAPINQSGHQDTTGPGSTDAQRTPPHAKERKKQGKSEQQAEALDSPQKKTKNKKKKNKKKKAATPAETCRDANEELNCQDPDVGDMEEEERLQVTDKKQASGSPEQKIRAGSREPVEDPQSGSSGKQNKVEEDGPTEGPTDILDQNSPQCEDREISPVGEKGPQCDTSQIGSEEGHVTSQHGGQAVENHNLDNSDLSGQLEGFNSESGGQAREEVGNSKSKEDCTMS

Target: T1, DDK-tagged ERRA (estrogen related receptor, alpha)
Experiment: affinity purification with mass spectrometry; DDK-tagged ERRA overexpressed in murine brown preadipocytes; Pierce IP Lysis Buffer; pulled down with FLAG-M2 magnetic beads; TMT labeling and LC-MS; IgG samples as control

| Binder | binding |
| --- | --- |
| B1 | binds |
| B2 | binds |

Results are given in words; binding and its absence hold for the method and conditions named. Binding seen in cells or lysates may run through a third protein. These calls come from enrichment with a bait or labelling near it, and not all partners need be listed. Sequences can lack the tags named with a protein.
